Measurements reported in paper PMC9975675.

Molecular target: T1, GST-IRF1-N(aa 1-163) (UniProt P10914)
T1 sequence: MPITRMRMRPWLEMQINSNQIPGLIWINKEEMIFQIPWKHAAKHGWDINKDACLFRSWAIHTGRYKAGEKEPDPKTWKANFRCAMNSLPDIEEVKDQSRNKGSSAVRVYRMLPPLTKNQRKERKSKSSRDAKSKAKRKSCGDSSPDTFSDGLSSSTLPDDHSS
Assay: pull-down; GST-IRF1 fusion proteins on glutathione-conjugated beads, with MUC1-CD (GST removed by thrombin); 2 h at room temperature; adsorbates detected by immunoblotting; both purified

- binding: binds
Substance: MUC1-CD (MUC1-C cytoplasmic 72 aa domain, GST removed) (domain or fragment)

No constants are given. Whether binding was seen depends on the method and setting. Binding calls can cover weak binding; strength is not graded here. Tags and fused reporters may be left off the sequences shown.
